Data as given in PubChem BioAssay AID1224826 (NIAID, 2016).

Screen: 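Regulators of Tlr4 signalling leading to Tnf-alpha expression in macrophages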 (primary screen)
Cells: RAW264.7 G9 macrophages from mouse bearing reporters for p65 (GFP) and the Tnf promoter (mCherry)
Reagent: siRNA pool against mouse genes, 100 nM
Time to read-out: 16 h of LPS stimulation, after 2 days of siRNA transfection
Challenge: bacterial lipopolysaccharide (Salmonella minnesota R595), 10 ng/ml
Detection: 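Nuclear mCherry signal of the Tnf promoter reporter measured by imaging after background removal, scaled to each plate median and turned into robust z-scores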
Direction: Tnf reporter robust z-score: higher = stronger Tnf promoter reporter signal after LPS; Tnf reporter intensity: higher = stronger Tnf promoter reporter signal
Hit rule: 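a well counts as active at a score of -1.3 or below (Tlr4 knock-down control median) or above 3 (raised signal); controls and wells holding fewer than 50 cells are excluded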
Calls: active = Tnf reporter clearly lowered or raised; inactive = no clear change in Tnf reporter
Shown is a random part of about 17,000 reagents tested. Over the whole deposit, about 1,110 (6.6%) are marked active. 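Active means lowered or raised reporter signal; replicate intensities are raw and not normalised per plate.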 Unmarked entries are inactive. Not all columns of the deposit are shown. No sequences are given here.

Gene | Tnf reporter robust z-score | fewer than 50 cells in well | Tnf reporter intensity, replicate 1
Azgp1 | 0.18 | enough cells in well | 170
Sms | 0.47 | enough cells in well | 308
Slc35h1 | – | fewer than 50 cells per well; well left out of calls | 0
Ubb | 0.38 | enough cells in well | 225
Krt16 | -0.22 | enough cells in well | 229
Sumf1 | -0.25 | enough cells in well | 227
Cacna2d3 | -0.53 | enough cells in well | 156
Taok3 | -0.75 | enough cells in well | 140
Gpank1 | 0.69 | enough cells in well | 249
Tril | -1.37 (active) | enough cells in well | 157
Or5p76 | 0.04 | enough cells in well | 60
Fez1 | -0.37 | enough cells in well | 211
Rps6ka5 | -0.29 | enough cells in well | 151
Srr | 0.06 | enough cells in well | 140
C130073F10Rik | -0.75 | enough cells in well | 88.1
Cp | -0.13 | enough cells in well | 194
Phox2a | -1.71 (active) | enough cells in well | 102
Rhof | -0.11 | enough cells in well | 331
Or1e21 | -2.17 (active) | enough cells in well | 54.9
Gfral | 1.22 | enough cells in well | 390
Ebf3 | -1 | enough cells in well | 120
Ppp4r2 | 1.42 | enough cells in well | 389
Ttc39c | – | fewer than 50 cells per well; well left out of calls | 286
Ube2e1 | 0.15 | enough cells in well | 250
Sct | 0.25 | enough cells in well | 152
Rheb | -0.12 | enough cells in well | 318
Tmem116 | -1.87 (active) | enough cells in well | 48.9
Slurp1 | – | fewer than 50 cells per well; well left out of calls | 139
Fbl | 0.91 | enough cells in well | 305
Ifnar2 | -0.58 | enough cells in well | 187
Praf2 | -0.99 | enough cells in well | 117
Psmd2 | 1.67 | enough cells in well | 375
Carnmt1 | -0.02 | enough cells in well | 256
Preb | 0.39 | enough cells in well | 257
Mmd | 1.69 | enough cells in well | 314
Cspg4 | 1.06 | enough cells in well | 266
Zfp105 | 1.47 | enough cells in well | 346
Parg | -0.19 | enough cells in well | 148
Abhd14b | 1.71 | enough cells in well | 332
Nrm | 0.28 | enough cells in well | 284
Adgrl1 | -0.21 | enough cells in well | 225
Atp10d | 0.57 | enough cells in well | 237
Dym | 0.83 | enough cells in well | 218
Cemip2 | -0.53 | enough cells in well | 97.3
Cdk15 | 2.55 | enough cells in well | 367
Epha6 | 0.7 | enough cells in well | 315
Hgh1 | 1.27 | enough cells in well | 166
Klk14 | -1.3 (active) | enough cells in well | 131
Ebag9 | -0.41 | enough cells in well | 216
Or8b12i | -1.13 | enough cells in well | 66
Cavin1 | 1.51 | enough cells in well | 200
Slc6a11 | -0.97 | enough cells in well | 211
Higd2a | – | fewer than 50 cells per well; well left out of calls | 140
Clip3 | – | fewer than 50 cells per well; well left out of calls | 150
Mex3b | -1.06 | enough cells in well | 87.5
Tspan17 | -0.93 | enough cells in well | 176
Tfip11 | – | fewer than 50 cells per well; well left out of calls | 39.7
Mtx2 | 0.16 | enough cells in well | 209
D830039M14Rik | 3.95 (active) | enough cells in well | 429
Dennd6a | 0.3 | enough cells in well | 215
Usp13 | 0.95 | enough cells in well | 199
Fech | -1.21 | enough cells in well | 131
Atxn2 | -0.53 | enough cells in well | 262
Cmtm5 | 1.8 | enough cells in well | 263
Vmn1r24 | 1.77 | enough cells in well | 174
Olfr242 | 2.13 | enough cells in well | 329
Or9s14 | -1.24 | enough cells in well | 108
Sva | – | fewer than 50 cells per well; well left out of calls | 52.5
Bloc1s1 | 0.19 | enough cells in well | 135
Cimap1a | -0.03 | enough cells in well | 201
Ckmt2 | 5.01 (active) | enough cells in well | 520
Bloc1s3 | 0.3 | enough cells in well | 123
Foxd4 | -1.06 | enough cells in well | 176
Antxrl | -0.54 | enough cells in well | 143
Yrdc | 1.33 | enough cells in well | 319

5 successive entries already listed:
Gene | Tnf reporter robust z-score | fewer than 50 cells in well | Tnf reporter intensity, replicate 1
Olfr242 | 2.13 | enough cells in well | 329
Or9s14 | -1.24 | enough cells in well | 108
Sva | – | fewer than 50 cells per well; well left out of calls | 52.5
Bloc1s1 | 0.19 | enough cells in well | 135
Cimap1a | -0.03 | enough cells in well | 201
